# No constants are given. Whether binding was seen depends on the method and setting. Binding seen in cells or lysates may run through a third protein. Binding can be weak; no strength is given. Tags and fused reporters may be left off the sequences shown.
# The chains behind the UniProt entries cited, without tags or fusion partners. Where a name states a change or a piece, a line headed by the entry shows the natural chain unless it says otherwise.
# UniProt Q9W3M8: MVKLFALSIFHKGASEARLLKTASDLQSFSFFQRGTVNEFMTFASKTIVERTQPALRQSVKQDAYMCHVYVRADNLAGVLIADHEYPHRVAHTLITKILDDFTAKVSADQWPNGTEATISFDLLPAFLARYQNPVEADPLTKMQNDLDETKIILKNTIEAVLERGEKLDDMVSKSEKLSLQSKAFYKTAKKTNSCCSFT
# Assays:
# [1] = biological target: GST tagged Ykt6[R164Q] full length (Drosophila); assay: pull-down; 0.5 mg GST fused bait immobilised on glutathione resin; 40 ul resin with 20 mg fly (L3 larval) lysate in 20 mM Tris, 50 mM NaCl, 0.1% Triton-X, 2 mM beta-mercaptoethanol, 30 min at 4 C; washes with 300 mM NaCl; western blot; only the target purified
# [2] = biological target: GST tagged, full length Ykt6 (Drosophila) (UniProt Q9W3M8); assay: as above
binding [1],binding [2],Binder
binds,binds,"endogenous Carnation/Car (Vps33A ortholog) (protein, UniProt Q9Y1I2 1-617) MFPHLKGHGQRVNLQLLQEAACRELLQQLDRIEGSKVIVLDETMIGPLDLVTRPKLFADRGIRLLALKPELHLPREVANVVYVMRPRVALMEQLAAHVKAGGRAAAGRQYHILFAPRRSCLCVSQLEVSGVLGSFGNIEELAWNYLPLDVDLVSMEMPNAFRDVSVDGDTSSLYQAAVGLVQLQRLYGRIPKIYGKGEFAHRVWEHAKQLGRDERTLYNGDKGVVDQLILLDRSIDLLSPLATQLTYEGLIDEFYGIRQNKLTLPAENFPSDGALPGGGGSGPRVEESQSLLGDTEKKTILLHSGEQLYAELRNKHFNEVTKLLARKAREIHVQMHATSQDKSVQEIKSFVENLLPQLMAQKKATSEHTAIAGLLHEQVNAVRFADDLAAEQEFMVCADIDKPSAYIEDLIACRVELNRVLRLICMQCHAASGFKEKLLNHYKRELVHVYGLEVLLTISNLEKSGLLHLQTESRAYSVLRKTLHLTVDDNVEIEPKDISYVHSFYAPLTARIVEHSLKPLGWQTLKSQINNLPGPTFEDFQAQLVGIGGRHTVTTVSEGSLLNVPRVVLVCFVGGCTFAEIAALRFLAAQEDNNVEFLIATTKVVNKHSFLDSLMSS"
binds,binds,"myc-Dor/Vps18 (protein, UniProt Q24314 1-1002) MDTSMPNQPKFLPRIEHNSSGATANSYVATASGNPFETDEEDEIFSRHKMVLRVPSNCTGDLMHLAVSRNWLVCLLGTPERTTLLRFFLPRAIPPGEAVLEKYLSGSGYKITRMFLDPTGHHIIIALVPKSATAGVSPDFLYIHCLESPQAQQLKVRRIEKFKDHEITAVAFNPYHGNESSTGPILLGTSRGLIFETELNPAADGHVQRKQLYDLGLGRPKYPITGLKLLRVPNSSRYIIVVTSPECIYTFQETLKAEERSLQAIFAGYVSGVQEPHCEERKTDLTFSQLRFFAPPNSKYPKQWAWLCGEGIRVGELSIEANSAATLIGNTLINLDFEKTMHLSYGERRLNTPKAFVLTEYHAVLLYADHVRAICLLNQEQVYQEAFDEARVGKPLSIERDELTGSIYVYTVKTVFNLRVTREERNVWRIYLDKGQYELATAHAAEDPEHLQLVLCQRADAAFADGSYQVAADYYAETDKSFEEVCLKFMVLPDKRPIINYVKKRLSRVTTKPMETDELDEDKMNIIKALVIWLIDLYLIQINMPDKDEEWRSSWQTEYDEFMMEAHVLSCTRQNRETVRQLIAEHADPRNMAQFAIAIGDYDEVVAQQLKAECYAEALQTLINQRNPELFYKYAPELITRLPKPTVDALMAQGSRLEVEKLVPTLIIMENREQREQTQRYLEFAIYKLNTTNDAIHNFLLHLYAEHEPKLLMKYLEIQGRDESLVHYDIYYAHKVCTDLDVKEARVFLECMLRKWISAVDLALTFDMKLAKETASRPSDSKIRRKLWLRIAYHDIKGTNDVKKALNLLKECDLLRIEDLLPFFADFEKIDNFKEAICDALRDYNQRIQELQREMAETTEQTDRVTAELQQLRQHSLTVESQDTCEICEMMLLVKPFFIFICGHKFHSDCLEKHVVPLLTKEQCRRLGTLKQQLEAEVQTQAQPQSGALSKQQAMELQRKRAALKTEIEDILAADCLFCGLLISTIDQPFVDDWEQVNVEWE"
,binds,"endogenous Syx17 (protein, UniProt Q9VZC9 1-301) MTRDEKLPLKQAEVSIQRFQDVAVPHHLSLLKNHRSNIEKSLALGDWQKIKKEELNAMRVIKQIKNLLLEMDALREKVREEDLERFDDLMKPGRDTAFAGMKEFAELQLKSPTSTLSSQYDDDLDNQPQEVDMNSLPAHRHMPQLQLNFQLEEHQLAQRQACLDQMENLQQEIYDLHGMFQGMRQLTAEQSVAVEKIADNAEEALENVQQGELNLRRALTYKKAMYPVVGALLGTCVGGPIGLVAGMKAGGLAAVGCGILGFTGGSVLKANPNVMHGNIEEEQVEPDSESTERLELKEKPE"
